No constants are given. Whether binding was seen depends on the method and setting. Binding seen in cells or lysates may run through a third protein. Some results given as binding are weak or reduced against the parent protein; the word gives no strength. For part of these data: Tags and fused reporters may be left off the sequences shown.

The chains behind the UniProt entries cited, without tags or fusion partners.
UniProt Q8IYW5: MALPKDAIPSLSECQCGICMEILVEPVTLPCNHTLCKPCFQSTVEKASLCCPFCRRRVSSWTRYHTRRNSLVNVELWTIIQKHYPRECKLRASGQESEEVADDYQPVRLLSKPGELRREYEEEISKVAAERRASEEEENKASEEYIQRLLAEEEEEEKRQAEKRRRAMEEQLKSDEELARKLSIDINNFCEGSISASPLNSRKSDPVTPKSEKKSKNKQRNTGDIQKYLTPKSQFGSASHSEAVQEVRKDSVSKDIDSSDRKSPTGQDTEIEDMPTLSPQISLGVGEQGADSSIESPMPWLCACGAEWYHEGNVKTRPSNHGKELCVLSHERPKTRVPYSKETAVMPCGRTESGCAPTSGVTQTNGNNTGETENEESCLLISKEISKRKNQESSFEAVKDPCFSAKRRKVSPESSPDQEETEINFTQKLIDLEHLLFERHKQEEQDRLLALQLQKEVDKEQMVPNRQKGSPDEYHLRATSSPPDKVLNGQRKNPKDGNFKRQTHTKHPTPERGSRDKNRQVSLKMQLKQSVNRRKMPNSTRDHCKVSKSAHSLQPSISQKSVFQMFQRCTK
UniProt P51587: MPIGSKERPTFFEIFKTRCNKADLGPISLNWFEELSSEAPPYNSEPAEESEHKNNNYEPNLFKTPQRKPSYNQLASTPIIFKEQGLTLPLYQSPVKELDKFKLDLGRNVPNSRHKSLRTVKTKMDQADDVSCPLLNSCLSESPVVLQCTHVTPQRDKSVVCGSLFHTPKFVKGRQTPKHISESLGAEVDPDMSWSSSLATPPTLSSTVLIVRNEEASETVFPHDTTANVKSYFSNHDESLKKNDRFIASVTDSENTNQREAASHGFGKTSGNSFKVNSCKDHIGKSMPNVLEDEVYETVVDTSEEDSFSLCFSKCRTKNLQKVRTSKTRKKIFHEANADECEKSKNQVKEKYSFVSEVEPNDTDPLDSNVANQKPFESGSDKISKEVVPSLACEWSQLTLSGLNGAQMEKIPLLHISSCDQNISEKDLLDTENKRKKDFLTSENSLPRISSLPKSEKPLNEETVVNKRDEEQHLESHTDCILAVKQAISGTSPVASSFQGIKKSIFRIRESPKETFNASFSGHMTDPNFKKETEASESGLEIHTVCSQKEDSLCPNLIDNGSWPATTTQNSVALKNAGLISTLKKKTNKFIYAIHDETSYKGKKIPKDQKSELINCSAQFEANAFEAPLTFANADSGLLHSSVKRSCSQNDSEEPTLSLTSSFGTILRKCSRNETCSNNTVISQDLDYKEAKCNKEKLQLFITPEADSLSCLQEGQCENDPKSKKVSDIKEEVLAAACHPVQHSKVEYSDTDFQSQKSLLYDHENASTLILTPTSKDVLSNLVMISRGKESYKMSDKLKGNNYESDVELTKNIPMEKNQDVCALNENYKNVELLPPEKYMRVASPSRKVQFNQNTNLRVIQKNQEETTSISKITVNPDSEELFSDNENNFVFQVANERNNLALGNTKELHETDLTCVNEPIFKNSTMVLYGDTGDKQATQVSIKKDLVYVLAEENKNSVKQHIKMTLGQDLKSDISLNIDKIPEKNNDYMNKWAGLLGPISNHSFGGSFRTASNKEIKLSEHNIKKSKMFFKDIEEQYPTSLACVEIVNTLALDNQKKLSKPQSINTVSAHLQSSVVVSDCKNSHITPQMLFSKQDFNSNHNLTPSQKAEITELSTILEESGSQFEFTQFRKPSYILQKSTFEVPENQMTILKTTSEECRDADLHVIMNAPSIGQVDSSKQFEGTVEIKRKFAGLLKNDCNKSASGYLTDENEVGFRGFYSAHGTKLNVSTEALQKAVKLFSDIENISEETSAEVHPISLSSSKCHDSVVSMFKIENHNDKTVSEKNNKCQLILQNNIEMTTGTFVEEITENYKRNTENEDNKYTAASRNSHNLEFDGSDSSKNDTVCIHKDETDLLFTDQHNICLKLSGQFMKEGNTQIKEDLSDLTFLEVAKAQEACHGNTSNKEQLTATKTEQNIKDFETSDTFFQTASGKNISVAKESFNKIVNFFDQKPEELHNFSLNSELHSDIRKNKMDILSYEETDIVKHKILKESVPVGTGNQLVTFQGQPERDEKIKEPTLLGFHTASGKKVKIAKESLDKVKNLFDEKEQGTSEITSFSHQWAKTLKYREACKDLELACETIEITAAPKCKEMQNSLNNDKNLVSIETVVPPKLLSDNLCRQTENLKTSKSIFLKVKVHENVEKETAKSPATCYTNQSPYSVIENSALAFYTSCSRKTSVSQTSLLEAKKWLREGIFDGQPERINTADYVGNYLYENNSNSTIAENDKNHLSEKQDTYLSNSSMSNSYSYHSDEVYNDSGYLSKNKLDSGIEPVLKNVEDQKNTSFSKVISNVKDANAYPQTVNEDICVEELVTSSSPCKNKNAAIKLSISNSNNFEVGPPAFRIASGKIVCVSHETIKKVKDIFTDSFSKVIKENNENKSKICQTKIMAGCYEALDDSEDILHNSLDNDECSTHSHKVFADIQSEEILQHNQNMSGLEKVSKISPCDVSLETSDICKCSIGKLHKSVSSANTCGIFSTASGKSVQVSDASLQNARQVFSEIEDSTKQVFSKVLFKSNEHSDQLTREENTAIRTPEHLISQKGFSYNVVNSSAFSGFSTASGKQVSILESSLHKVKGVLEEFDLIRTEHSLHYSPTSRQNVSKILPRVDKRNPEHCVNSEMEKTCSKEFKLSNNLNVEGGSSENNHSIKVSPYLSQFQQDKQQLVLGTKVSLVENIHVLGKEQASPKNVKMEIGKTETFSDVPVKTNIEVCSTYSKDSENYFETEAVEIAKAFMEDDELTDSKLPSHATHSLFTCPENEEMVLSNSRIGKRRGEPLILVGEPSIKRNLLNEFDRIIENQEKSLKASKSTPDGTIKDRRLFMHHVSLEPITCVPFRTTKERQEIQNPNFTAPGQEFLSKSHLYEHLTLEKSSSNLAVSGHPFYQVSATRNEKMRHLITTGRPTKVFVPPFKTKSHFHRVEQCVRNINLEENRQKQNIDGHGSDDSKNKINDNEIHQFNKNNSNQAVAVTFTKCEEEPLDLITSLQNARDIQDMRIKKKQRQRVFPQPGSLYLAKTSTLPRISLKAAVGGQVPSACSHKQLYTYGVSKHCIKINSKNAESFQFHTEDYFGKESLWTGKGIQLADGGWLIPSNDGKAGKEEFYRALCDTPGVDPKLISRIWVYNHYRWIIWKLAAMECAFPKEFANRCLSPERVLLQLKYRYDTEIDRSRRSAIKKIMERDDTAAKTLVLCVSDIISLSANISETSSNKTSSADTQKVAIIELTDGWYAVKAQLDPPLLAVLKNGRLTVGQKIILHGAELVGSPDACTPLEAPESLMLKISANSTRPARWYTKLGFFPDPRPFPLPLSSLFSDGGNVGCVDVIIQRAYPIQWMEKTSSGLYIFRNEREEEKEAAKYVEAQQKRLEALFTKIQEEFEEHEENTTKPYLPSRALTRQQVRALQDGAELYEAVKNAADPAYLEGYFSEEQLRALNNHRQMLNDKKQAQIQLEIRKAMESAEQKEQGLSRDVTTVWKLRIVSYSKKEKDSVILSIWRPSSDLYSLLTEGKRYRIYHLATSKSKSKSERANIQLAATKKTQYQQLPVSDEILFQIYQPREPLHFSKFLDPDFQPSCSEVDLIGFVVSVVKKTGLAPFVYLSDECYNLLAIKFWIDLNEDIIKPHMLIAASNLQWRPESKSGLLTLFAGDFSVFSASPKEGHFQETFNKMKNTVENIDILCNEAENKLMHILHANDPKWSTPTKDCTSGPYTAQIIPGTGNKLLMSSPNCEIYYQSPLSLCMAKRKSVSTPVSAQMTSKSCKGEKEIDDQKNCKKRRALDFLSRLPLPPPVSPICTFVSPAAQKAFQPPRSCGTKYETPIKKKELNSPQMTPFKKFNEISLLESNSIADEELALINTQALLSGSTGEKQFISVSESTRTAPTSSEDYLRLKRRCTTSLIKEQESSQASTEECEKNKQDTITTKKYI

Results on 2 substances are retold here after PMC5328590.

Test in all cases: co-IP; pulldown of GFP- or YFP-tagged fusion proteins with GFP Trap beads from U2OS lysates; EBC-150 buffer (50 mM Tris pH 7.5, 150 mM NaCl, 0.5% NP-40, 1 mM EDTA) with Benzonase; washes with 150/300 mM NaCl; immunoblot
(In general: A western blot detects proteins with antibodies after separation by electrophoresis.)

One test concerns the target T1, YFP-PALB2^WT (human) (UniProt Q86YC2).
T1 sequence: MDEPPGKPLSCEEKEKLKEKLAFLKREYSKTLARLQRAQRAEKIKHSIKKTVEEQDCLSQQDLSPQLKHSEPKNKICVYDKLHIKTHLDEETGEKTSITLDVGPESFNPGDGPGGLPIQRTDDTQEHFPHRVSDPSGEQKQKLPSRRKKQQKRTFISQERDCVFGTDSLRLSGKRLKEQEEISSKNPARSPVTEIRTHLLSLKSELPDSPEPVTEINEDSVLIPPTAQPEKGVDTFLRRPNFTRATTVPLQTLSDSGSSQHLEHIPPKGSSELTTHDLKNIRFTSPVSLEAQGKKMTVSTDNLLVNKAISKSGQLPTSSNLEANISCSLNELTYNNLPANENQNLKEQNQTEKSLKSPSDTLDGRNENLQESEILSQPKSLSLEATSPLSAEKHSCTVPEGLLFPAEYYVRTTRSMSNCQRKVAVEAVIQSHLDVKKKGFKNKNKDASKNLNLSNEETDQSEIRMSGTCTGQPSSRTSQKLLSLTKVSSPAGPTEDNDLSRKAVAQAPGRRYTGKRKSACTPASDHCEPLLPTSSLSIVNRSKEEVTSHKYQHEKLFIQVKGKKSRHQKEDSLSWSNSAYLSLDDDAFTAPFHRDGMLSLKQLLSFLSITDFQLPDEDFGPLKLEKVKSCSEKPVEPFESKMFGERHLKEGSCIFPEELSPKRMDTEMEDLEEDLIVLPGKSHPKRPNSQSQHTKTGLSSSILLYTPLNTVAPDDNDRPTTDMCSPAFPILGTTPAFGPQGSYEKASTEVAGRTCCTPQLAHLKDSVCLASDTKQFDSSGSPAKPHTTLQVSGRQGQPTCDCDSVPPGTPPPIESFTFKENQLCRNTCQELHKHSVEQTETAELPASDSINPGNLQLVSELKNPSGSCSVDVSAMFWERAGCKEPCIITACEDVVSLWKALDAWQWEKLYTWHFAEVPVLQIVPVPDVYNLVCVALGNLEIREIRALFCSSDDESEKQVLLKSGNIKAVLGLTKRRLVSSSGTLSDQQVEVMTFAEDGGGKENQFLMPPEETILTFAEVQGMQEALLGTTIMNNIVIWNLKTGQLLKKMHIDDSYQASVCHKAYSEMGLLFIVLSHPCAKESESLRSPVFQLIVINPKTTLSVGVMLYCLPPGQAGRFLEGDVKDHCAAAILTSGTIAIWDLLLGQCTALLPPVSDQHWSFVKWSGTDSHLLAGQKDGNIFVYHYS

In test [1] the target is T2, YFP-PALB2^ΔWD40 (T7) (human) (UniProt Q86YC2).
T2 sequence: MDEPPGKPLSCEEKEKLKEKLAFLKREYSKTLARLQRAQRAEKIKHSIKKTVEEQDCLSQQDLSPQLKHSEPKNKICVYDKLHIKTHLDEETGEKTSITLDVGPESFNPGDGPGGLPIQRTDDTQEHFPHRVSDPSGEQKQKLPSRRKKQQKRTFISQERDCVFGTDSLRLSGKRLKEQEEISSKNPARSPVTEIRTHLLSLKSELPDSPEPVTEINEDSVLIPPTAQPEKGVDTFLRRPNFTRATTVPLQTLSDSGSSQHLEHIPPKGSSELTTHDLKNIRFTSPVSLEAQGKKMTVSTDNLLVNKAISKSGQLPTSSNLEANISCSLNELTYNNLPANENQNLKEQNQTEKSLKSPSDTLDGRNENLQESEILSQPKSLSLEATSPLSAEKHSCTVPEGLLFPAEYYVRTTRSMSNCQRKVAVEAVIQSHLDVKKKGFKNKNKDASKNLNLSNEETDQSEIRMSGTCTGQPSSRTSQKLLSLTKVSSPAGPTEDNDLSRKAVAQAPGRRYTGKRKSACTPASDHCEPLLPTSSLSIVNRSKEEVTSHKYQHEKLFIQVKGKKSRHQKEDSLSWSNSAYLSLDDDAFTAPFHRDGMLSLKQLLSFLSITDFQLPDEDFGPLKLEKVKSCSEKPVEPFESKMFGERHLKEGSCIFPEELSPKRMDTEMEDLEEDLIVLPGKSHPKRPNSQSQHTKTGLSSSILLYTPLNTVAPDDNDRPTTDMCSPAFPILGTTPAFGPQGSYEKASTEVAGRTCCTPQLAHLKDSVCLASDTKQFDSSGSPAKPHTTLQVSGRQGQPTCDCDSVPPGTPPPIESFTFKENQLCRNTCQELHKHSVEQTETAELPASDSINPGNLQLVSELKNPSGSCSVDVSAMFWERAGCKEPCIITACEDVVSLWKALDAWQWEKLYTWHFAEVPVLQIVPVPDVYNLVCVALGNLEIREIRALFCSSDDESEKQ

Test [2] addresses GFP-tagged RNF168 (GFP-RNF168^WT) (human) (UniProt Q8IYW5).

Turning to “mCherry-RNF168 (from UniProt Q8IYW5 1-571)”, the binding result with YFP-PALB2^WT (human) was “binds”; in test [1] it was “binds weakly”. Take “endogenous BRCA2 (from UniProt P51587 1-3418)”: in test [2], the binding result is recorded as “binds”.
